Results are given in words; binding and its absence hold for the method and conditions named. Some binding calls cover weakened binding; strength is not graded here.
How the values were obtained:
Test in all cases: peptide or protein array; 12-mers of β-actin (2 amino acids per step) SPOT-synthesised on cellulose membranes, blocked with 5% BSA in PBS, incubated overnight with Atto594-labeled Par14 or Par17, washed with PBS, fluorescence imaged; runs of three or more spots classified as possible binding sites; both purified
β-actin 12-mer, spot F5 = target: T1, β-actin 12-mer, spot F5
T1 sequence (peptide): LPHAILRLDLAG

β-actin 12-mer, spot F7 = target: T2, β-actin 12-mer, spot F7
T2 sequence (peptide): GNERFRCPEALF

β-actin 12-mer, spot N5 = target: T3, β-actin 12-mer, spot N5
T3 sequence (peptide): DYLMKILTERGY

β-actin 12-mer, spot D7 = target: T4, β-actin 12-mer, spot D7
T4 sequence (peptide): VITIGNERFRCP

β-actin 12-mer, spot M9 = target: T5, β-actin 12-mer, spot M9
T5 sequence (peptide): ILASLSTFQQMW

β-actin 12-mer, spot H4 = target: T6, β-actin 12-mer, spot H4
T6 sequence (peptide): AIQAVLSLYASG

β-actin 12-mer, spot J8 = target: T7, β-actin 12-mer, spot J8
T7 sequence (peptide): LSGGTTMYPGIA

β-actin 12-mer, spot J2 = target: T8, β-actin 12-mer, spot J2
T8 sequence (peptide): QSKRGILTLKYP

β-actin 12-mer, spot G4 = target: T9, β-actin 12-mer, spot G4
T9 sequence (peptide): YVAIQAVLSLYA

β-actin 12-mer, spot T1 = target: T10, β-actin 12-mer, spot T1
T10 sequence (peptide): RHQGVMVGMGQK

β-actin 12-mer, spot E4 = target: T11, β-actin 12-mer, spot E4
T11 sequence (peptide): TPAMYVAIQAVL

β-actin 12-mer, spot D3 = target: T12, β-actin 12-mer, spot D3
T12 sequence (peptide): HHTFYNELRVAP

β-actin 12-mer, spot K8 = target: T13, β-actin 12-mer, spot K8
T13 sequence (peptide): GGTTMYPGIADR

β-actin 12-mer, spot K4 = target: T14, β-actin 12-mer, spot K4
T14 sequence (peptide): SLYASGRTTGIV

β-actin 12-mer, spot M8 = target: T15, β-actin 12-mer, spot M8
T15 sequence (peptide): MYPGIADRMQKE

β-actin 12-mer, spot I9 = target: T16, β-actin 12-mer, spot I9
T16 sequence (peptide): YSVWIGGSILAS

Measured: binding

Atto594-labeled Par17 (from UniProt Q9Y237-2 3-156) (enzyme)
binds: all assays above
